Measurements taken from PMC8505262.
These are yes or no findings as the source states them, for the method shown. Binding seen in cells or lysates may run through a third protein. Some binding calls cover weakened binding; strength is not graded here. Tags and fused reporters may be left off the sequences shown.

T1: HA-tagged Neurensin-2 (UniProt Q5HZK2)
T1 sequence: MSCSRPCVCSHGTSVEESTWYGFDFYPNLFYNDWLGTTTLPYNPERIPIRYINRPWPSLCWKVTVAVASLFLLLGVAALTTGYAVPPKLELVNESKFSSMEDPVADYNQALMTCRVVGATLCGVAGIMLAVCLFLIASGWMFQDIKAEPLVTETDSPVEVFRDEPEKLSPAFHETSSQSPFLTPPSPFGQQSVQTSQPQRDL


Biological target: T1, HA-tagged Neurensin-2
Assay: co-IP; co-IP of HA-Nrsn2 or HA control from transfected N2a cells; immunoblots of the partners beside 1% inputs

binding	Molecule
binds	actin related protein 2/3 complex subunit 1b (from UniProt Q9WV32 1-372)
binds	vacuolar protein sorting-associated protein 37B (protein, UniProt Q8R0J7 1-285) MAGAVSEARFAGLSLMQLHELLEDDAQLGDMVRGMEEAQTVQLNKEMTLASNRSLAEGNLLYQPQLDAQKARLTQKYQELQVLFEAYQIKKTKLDKQSNNASLETLLALLQAEGAKIEEDTENMAEKFLDGELPLDSFIDVYQSKRKLAHMRRVKVEKLQELVLKGQRHPQAGAPPPPRVPEPSPATALPYPSLEATGLPSVVPRRIPPPPPPVPAGHVATPFAAAMGSGQVSAYPGLQCPPLPPRVGLPSQQGFSAQLVSPYPPALPQRPPPRMAPHQPGFILQ
binds	Homer3 (protein, UniProt Q99JP6 1-356) MSTAREQPIFSTRAHVFQIDPTTKRNWIPAGKHALTVSYFYDATRNVYRIISIGGAKAIINSTVTPNMTFTKTSQKFGQWADSRANTVYGLGFASEQQLTQFAEKFQEVKEAARLAREKSQDGGEFTSTGLALASHQVPPSPLVSTNGPGEEKLFRSQSADTPGPTERERLKKMLSEGSVGEVQWEAEFFALQDSNQRLAGALREANAAATQWRQQLEVQRAEAELLRQRVAELEAQVAVEPVRAGEKEATSQSVEQLEARVQTKDQTLKNQSTGTREAPDTAEREETQQQVQDLETRNAELEQQLRSMECNLEEARAERERARAEVGRAAQLLDVRLFELSELREGLARLAEAAP
